Patent US10407468 (dated 2019)
Where no end group is shown, it is not given here. [ ]: non-standard residue; d: D form. The star is where a group is joined. Phe(4-tBu) = CC(C)(C)c1ccc(C[C@H](N)C(=O)O)cc1; Pbf = Cc1c(C)c(S(=O)(=O)*)c(C)c2c1OC(C)(C)C2; Fmoc = O=C(OCC1c2ccccc2-c2ccccc21)*; NMeR = CN[C@@H](CCCNC(=N)N)C(=O)O; β3hE = N[C@@H](CCC(=O)O)CC(=O)O; Pen = CC(C)(S)[C@H](N)C(=O)O; Cbz = O=C(OCc1ccccc1)*; Boc = CC(C)(C)OC(=O)*; OtBu = CC(C)(C)O*; Acm = CC(=O)NC*; tBu = CC(C)(C)*

Assay: general procedure: Fmoc solid-phase peptide synthesis; tricyclic amide linker resin (Ramage Resin)
[1] = late stage modification step, HPLC (AUC), run 1
[2] = late stage modification step, HPLC (AUC), run 2
[3] = late stage modification step, run 1
[4] = late stage modification step, run 2
[5] = late stage modification step, HPLC (AUC)

Substance: Ac-Pen(Acm)-N(Me)-Arg(pbf)-Ser(^tBu)-Asp(O^tBu)-Thr(^tBu)-Leu-OH
- step yield (late stage modification step): 78%

Substance: Ac-Pen(Acm)-N(Me)-Arg(pbf)-Ser(^tBu)-Asp(O^tBu)-Thr(^tBu)-Leu-Pen(Acm)-Phe(4-^tBu)-β-homoGlu(O^tBu)-(D)-Lys(Boc)-NH2
- step yield (coupling step): 85%
- crude HPLC purity [1]: 87.2%
- crude HPLC purity [2]: 77.2%
- step yield [3]: 82.3%
- step yield [4]: 92.6%

Substance: Ac-Pen(^ΨMe,MePro)-N-Me-Arg(Pbf)-Ser(^tBu)-Asp(O^tBu)-Thr(^tBu)-Leu-OMe (SEQ ID NO: 3)
- step yield (coupling step): 66.6%

Substance: Ac-[Pen][NMeR]SDTL[Pen][Phe(4-tBu)][β3hE][dK] (cysteine pairing not given here)
- final HPLC purity (cyclisation step, AUC): 94.09%
- crude HPLC purity (cyclisation step, AUC, run 1): 59.92%
- crude HPLC purity (cyclisation step, AUC, run 2): 40.10%
- step yield (late stage modification step): 104%
- crude HPLC purity [1]: 60.3%
- crude HPLC purity [2]: 56.2%
- final HPLC purity (oxidative folding step, HPLC (AUC)): around 97% purity
- oxidative folding yield (oxidative folding step, total weight of purified peptide obtained/total weight of crude peptide processed): 28.3%
- crude HPLC purity (whole synthesis, AUC, run 1): 67.05%
- crude HPLC purity (whole synthesis, AUC, run 2): 51.23%

Substance: Cbz-N(Me)-Arg(Pbf)-Ser(^tBu)-Asp(O^tBu)-Thr(^tBu)-Leu-OMe
- step yield (coupling step): 91%

Substance: Cbz-N(Me)-Arg(Pbf)-Ser(^tBu)-Asp(O^tBu)-Thr(^tBu)-Leu-OMe (SEQ ID NO:5)
- step yield (coupling step, run 1): 34.28%
- step yield (coupling step, run 2): 91%

Substance: Cbz-S(tBu)D(OtBu)T(tBu)L-OMe (SEQ ID NO: 77)
- step yield (coupling step, run 1): 37.33%
- step yield (coupling step, run 2): 92%

Substance: Cbz-S(tBu)D(OtBu)T(tBu)L[Pen](Acm)[Phe(4-tBu)][β3hE](OtBu)[dK](Boc)-NH2
- step yield (coupling step): 99.7%
- crude HPLC purity (coupling step, HPLC (AUC)): 89.5%

Substance: Fmoc-Pen(Acm)-N(Me)-Arg(pbf)-Ser(^tBu)-Asp(O^tBu)-Thr(^tBu)-Leu-OMe (SEQ ID NO:3)
- crude purity (method not given) (coupling step, HPLC (AUC)): 89.8%
- step yield (coupling step, run 1): 94.6%
- step yield (coupling step, run 2): 84%

Substance: Fmoc-[Pen](Acm)[Phe(4-tBu)][β3hE](OtBu)[dK](Boc)-NH2 (SEQ ID NO:4)
- crude HPLC purity (coupling step, HPLC (AUC), run 1): 95.2%
- crude HPLC purity (coupling step, HPLC (AUC), run 2): 93.9%
- step yield (coupling step, run 1): 90.6%
- step yield (coupling step, run 2): 98.32%

Substance: H-(N)Me-Arg(Pbf)-Ser(^tBu)-Asp(O^tBu)-Thr(^tBu)-Leu-OMe (SEQ ID NO:5)
- step yield [3]: 94%
- step yield [4]: 95%

Substance: H-N-Me-Arg(Pbf)-Ser(^tBu)-Asp(O^tBu)-Thr(^tBu)-Leu-Pen(Acm)-Phe(4-^tBu)-β-homoGlu(O^tBu)-D-Lys(Boc)-NH2
- crude HPLC purity (coupling step, HPLC (AUC)): 90%

Substance: H-S(tBu)D(OtBu)T(tBu)L-OMe (SEQ ID NO: 77)
- step yield [3]: 87.33%
- step yield [4]: 95%

Substance: H-S(tBu)D(OtBu)T(tBu)L[Pen](Acm)[Phe(4-tBu)][β3hE](OtBu)[dK](Boc)-NH2
- step yield (late stage modification step): 87%
- crude HPLC purity [5]: 82.7%

Substance: H-[NMeR](Pbf)S(tBu)D(OtBu)T(tBu)L-OH
- step yield (late stage modification step): 87.7%
- crude HPLC purity [5]: 96.3%

Substance: H-[Pen](Acm)[Phe(4-tBu)][β3hE](OtBu)[dK](Boc)-NH2 (SEQ ID NO:4)
- final HPLC purity [5]: 94.3%
- crude HPLC purity [1]: 93.3%
- crude HPLC purity [2]: 96.2%
- step yield [3]: 55.5%
- step yield [4]: 77.3%

Substance: Z-Ser(^tBu)-Asp(O^tBu)-Thr(^tBu)-Leu-OH
- step yield (late stage modification step): 99.2%
- crude HPLC purity [5]: 91.1%

Substance: Z-Ser(^tBu)-Asp(O^tBu)-Thr(^tBu)-Leu-OMe
- step yield (coupling step): 97.9%
- crude HPLC purity (coupling step, HPLC (AUC)): 92.6%
- step yield (purification step): 89.3%
- final HPLC purity (purification step, HPLC (AUC)): 99.1%
